# Test results taken from article PMC12177072.
# Amino acid sequences for entries named in this document (tags omitted).
# UniProt P49327: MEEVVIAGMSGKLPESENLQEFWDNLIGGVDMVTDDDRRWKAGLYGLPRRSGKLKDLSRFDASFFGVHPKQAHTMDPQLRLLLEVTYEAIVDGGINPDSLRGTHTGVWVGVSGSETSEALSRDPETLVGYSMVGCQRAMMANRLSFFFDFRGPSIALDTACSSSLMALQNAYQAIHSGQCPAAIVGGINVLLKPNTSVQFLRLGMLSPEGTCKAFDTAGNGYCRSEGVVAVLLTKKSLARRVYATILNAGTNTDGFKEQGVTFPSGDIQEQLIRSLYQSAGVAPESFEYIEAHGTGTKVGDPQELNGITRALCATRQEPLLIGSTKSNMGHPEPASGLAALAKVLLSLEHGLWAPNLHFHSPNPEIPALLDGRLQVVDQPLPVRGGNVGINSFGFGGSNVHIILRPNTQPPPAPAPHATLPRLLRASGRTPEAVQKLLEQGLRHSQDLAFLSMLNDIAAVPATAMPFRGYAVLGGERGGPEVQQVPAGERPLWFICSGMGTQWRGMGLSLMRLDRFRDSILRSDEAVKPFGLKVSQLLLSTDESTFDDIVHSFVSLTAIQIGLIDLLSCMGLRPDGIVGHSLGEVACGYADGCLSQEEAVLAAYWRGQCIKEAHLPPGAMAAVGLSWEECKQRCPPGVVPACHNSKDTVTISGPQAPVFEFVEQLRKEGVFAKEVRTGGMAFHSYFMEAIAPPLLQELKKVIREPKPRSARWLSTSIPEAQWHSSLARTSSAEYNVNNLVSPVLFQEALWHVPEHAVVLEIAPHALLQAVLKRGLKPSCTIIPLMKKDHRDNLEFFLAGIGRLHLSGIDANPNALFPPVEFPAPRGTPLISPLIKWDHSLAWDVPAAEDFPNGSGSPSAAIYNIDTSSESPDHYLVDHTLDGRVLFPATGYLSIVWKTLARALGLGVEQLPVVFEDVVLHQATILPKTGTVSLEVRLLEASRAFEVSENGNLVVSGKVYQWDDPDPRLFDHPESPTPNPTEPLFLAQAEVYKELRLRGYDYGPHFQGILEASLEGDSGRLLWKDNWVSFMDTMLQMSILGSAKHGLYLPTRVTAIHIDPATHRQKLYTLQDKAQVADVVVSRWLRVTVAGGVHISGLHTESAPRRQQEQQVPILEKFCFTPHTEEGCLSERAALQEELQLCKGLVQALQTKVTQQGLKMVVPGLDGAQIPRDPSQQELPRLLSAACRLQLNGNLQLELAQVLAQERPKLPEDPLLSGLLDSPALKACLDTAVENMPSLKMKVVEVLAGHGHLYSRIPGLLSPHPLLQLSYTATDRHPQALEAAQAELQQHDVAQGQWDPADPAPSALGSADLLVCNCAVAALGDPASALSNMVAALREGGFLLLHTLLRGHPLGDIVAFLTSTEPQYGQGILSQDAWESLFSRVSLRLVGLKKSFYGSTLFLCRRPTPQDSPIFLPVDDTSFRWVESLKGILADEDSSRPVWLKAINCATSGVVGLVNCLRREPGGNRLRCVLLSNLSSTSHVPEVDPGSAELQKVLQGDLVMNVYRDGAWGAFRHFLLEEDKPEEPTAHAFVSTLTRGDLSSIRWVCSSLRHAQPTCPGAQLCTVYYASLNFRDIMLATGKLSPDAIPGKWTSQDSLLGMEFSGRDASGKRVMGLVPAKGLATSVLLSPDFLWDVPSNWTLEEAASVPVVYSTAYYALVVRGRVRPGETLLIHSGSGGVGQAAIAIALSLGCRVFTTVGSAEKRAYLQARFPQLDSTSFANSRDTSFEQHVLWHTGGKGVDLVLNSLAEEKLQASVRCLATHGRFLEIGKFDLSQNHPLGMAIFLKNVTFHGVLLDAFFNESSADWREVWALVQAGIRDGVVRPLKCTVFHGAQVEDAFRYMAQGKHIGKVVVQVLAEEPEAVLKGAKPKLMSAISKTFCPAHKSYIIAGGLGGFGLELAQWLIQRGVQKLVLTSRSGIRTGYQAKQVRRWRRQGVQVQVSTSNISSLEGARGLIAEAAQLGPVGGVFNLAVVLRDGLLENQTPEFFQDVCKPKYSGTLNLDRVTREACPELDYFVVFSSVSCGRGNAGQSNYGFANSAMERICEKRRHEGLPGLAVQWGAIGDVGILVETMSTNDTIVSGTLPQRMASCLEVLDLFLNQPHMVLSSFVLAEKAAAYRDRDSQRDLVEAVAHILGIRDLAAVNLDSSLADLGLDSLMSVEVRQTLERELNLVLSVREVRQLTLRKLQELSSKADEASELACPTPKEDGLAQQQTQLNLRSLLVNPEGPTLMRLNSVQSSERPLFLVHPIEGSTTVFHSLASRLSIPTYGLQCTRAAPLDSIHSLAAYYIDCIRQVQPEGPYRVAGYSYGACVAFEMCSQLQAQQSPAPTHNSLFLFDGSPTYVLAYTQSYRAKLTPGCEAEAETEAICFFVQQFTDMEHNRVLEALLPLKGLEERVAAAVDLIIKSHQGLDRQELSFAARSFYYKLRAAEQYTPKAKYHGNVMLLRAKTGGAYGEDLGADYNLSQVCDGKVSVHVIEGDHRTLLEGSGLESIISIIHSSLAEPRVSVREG
# Results are given in words; binding and its absence hold for the method and conditions named. In cells and extracts the contact can be indirect. Some results given as binding are weak or reduced against the parent protein; the word gives no strength. Where a sequence is shown, tags or fusion partners need not be part of it.
# B1: HA-USP15 (enzyme, UniProt Q9Y4E8 1-981)
# chain: MAEGGAADLDTQRSDIATLLKTSLRKGDTWYLVDSRWFKQWKKYVGFDSWDKYQMGDQNVYPGPIDNSGLLKDGDAQSLKEHLIDELDYILLPTEGWNKLVSWYTLMEGQEPIARKVVEQGMFVKHCKVEVYLTELKLCENGNMNNVVTRRFSKADTIDTIEKEIRKIFSIPDEKETRLWNKYMSNTFEPLNKPDSTIQDAGLYQGQVLVIEQKNEDGTWPRGPSTPKSPGASNFSTLPKISPSSLSNNYNNMNNRNVKNSNYCLPSYTAYKNYDYSEPGRNNEQPGLCGLSNLGNTCFMNSAIQCLSNTPPLTEYFLNDKYQEELNFDNPLGMRGEIAKSYAELIKQMWSGKFSYVTPRAFKTQVGRFAPQFSGYQQQDCQELLAFLLDGLHEDLNRIRKKPYIQLKDADGRPDKVVAEEAWENHLKRNDSIIVDIFHGLFKSTLVCPECAKISVTFDPFCYLTLPLPMKKERTLEVYLVRMDPLTKPMQYKVVVPKIGNILDLCTALSALSGIPADKMIVTDIYNHRFHRIFAMDENLSSIMERDDIYVFEININRTEDTEHVIIPVCLREKFRHSSYTHHTGSSLFGQPFLMAVPRNNTEDKLYNLLLLRMCRYVKISTETEETEGSLHCCKDQNINGNGPNGIHEEGSPSEMETDEPDDESSQDQELPSENENSQSEDSVGGDNDSENGLCTEDTCKGQLTGHKKRLFTFQFNNLGNTDINYIKDDTRHIRFDDRQLRLDERSFLALDWDPDLKKRYFDENAAEDFEKHESVEYKPPKKPFVKLKDCIELFTTKEKLGAEDPWYCPNCKEHQQATKKLDLWSLPPVLVVHLKRFSYSRYMRDKLDTLVDFPINDLDMSEFLINPNAGPCRYNLIAVSNHYGGMGGGHYTAFAKNKDDGKWYYFDDSSVSTASEDQIVSKAAYVLFYQRQDTFSGTGFFPLDRETKGASAATGIPLESDEDSNDNDNDIENENCMHTN
# B2: HA-PUMA (protein, UniProt Q9BXH1 1-193)
# chain: MARARQEGSSPEPVEGLARDGPRPFPLGRLVPSAVSCGLCEPGLAAAPAAPTLLPAAYLCAPTAPPAVTAALGGSRWPGGPRSRPRGPRPDGPQPSLSLAEQHLESPVPSAPGALAGGPTQAAPGVRGEEEQWAREIGAQLRRMADDLNAQYERRRQEEQQRHRPSPWRVLYNLIMGLLPLPRGHRAPEMEPN
# Legend:
# [1] = molecular target: T1, FLAG-PUMA (UniProt Q9BXH1); assay: co-IP; exogenous, HEK293T cells 48 h after co-transfection of tagged plasmids; IP with HA or FLAG antibody, magnetic beads, Western blot; also in CN, shPUMA and PUMA-overexpressing HEK293T
# T1 sequence: B2 chain
# [2] = molecular target: FLAG-FASN (UniProt P49327); assay: as above
Binder,binding [1],binding [2]
B1,binds,binds
B2,–,binds
